The list shows a part of the results.

Sequences of proteins named here, by UniProt entry; tags and fusion partners are left off. A change or cut given only in a name is not applied to a line headed by its entry.
UniProt P24386: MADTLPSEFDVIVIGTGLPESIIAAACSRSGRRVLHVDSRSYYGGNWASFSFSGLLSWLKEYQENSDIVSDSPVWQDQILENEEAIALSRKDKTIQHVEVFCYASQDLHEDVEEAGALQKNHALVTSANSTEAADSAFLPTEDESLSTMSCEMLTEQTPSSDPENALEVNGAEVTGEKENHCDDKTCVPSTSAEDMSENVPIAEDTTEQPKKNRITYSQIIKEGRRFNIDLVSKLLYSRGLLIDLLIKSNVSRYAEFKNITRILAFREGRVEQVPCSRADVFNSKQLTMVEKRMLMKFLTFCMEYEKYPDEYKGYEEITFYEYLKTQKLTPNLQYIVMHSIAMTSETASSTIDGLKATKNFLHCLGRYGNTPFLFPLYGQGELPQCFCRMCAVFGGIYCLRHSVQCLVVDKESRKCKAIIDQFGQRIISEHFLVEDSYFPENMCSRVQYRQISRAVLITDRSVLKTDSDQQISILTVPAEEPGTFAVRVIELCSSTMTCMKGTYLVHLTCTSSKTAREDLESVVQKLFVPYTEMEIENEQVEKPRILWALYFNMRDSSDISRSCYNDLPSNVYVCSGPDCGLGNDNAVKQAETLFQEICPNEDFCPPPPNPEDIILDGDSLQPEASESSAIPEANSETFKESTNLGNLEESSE
UniProt Q9UHD1: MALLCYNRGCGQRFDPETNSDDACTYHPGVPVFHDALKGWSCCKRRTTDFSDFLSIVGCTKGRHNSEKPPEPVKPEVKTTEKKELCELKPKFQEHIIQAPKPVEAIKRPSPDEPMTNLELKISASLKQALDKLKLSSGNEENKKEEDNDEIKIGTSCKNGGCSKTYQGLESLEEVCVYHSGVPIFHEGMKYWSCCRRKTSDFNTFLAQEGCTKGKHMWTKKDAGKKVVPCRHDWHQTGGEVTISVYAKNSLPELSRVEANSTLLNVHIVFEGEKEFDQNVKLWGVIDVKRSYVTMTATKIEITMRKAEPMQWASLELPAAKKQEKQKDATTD
UniProt O14646: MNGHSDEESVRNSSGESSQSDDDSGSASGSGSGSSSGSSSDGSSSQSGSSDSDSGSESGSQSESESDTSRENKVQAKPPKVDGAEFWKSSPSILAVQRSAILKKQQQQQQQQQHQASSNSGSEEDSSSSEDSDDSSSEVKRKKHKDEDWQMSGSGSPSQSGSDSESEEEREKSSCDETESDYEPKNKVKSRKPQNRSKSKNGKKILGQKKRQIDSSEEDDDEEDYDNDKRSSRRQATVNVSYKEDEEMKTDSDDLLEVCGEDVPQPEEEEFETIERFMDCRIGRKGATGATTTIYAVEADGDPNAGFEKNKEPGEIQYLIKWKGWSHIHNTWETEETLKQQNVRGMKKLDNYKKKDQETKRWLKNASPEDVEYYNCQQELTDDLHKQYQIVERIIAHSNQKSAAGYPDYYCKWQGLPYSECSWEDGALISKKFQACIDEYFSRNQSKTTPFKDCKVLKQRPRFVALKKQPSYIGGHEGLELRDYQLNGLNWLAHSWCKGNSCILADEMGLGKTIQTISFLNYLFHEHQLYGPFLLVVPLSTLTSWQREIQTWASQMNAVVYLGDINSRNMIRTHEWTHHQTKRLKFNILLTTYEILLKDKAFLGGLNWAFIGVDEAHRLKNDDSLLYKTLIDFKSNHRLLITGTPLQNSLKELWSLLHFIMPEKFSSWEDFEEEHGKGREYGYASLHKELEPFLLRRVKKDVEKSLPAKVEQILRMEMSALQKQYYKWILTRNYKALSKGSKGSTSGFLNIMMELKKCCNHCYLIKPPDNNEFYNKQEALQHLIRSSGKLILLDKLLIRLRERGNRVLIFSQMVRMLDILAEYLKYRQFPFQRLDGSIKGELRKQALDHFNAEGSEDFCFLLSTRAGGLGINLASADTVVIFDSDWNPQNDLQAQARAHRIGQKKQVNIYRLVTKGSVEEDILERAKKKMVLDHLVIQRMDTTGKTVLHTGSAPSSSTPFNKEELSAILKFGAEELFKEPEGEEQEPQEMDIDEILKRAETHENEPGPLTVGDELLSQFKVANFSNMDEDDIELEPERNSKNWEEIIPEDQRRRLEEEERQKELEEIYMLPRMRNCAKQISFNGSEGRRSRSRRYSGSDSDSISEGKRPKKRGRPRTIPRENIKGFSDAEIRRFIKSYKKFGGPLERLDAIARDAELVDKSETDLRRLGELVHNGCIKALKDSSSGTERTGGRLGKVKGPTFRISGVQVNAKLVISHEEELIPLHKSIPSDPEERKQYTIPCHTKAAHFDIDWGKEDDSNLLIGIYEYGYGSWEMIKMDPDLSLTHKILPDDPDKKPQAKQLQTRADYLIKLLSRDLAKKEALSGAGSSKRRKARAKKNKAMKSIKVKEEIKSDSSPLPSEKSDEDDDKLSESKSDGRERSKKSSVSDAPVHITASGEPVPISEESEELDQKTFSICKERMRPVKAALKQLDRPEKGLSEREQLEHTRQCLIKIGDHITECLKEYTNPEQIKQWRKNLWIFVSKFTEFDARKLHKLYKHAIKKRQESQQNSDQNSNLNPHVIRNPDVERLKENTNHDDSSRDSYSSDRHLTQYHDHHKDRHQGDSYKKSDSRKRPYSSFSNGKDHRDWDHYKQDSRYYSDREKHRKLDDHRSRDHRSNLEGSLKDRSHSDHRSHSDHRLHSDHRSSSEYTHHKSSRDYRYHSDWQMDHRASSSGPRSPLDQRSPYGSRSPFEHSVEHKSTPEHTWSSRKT
UniProt Q96CF2: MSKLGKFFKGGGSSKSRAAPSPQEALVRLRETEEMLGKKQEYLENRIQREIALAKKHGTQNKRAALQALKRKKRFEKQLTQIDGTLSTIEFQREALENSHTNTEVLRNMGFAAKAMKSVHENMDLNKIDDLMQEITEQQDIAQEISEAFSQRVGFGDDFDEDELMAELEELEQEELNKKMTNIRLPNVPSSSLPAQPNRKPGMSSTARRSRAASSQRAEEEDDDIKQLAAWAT
UniProt Q8WWK9: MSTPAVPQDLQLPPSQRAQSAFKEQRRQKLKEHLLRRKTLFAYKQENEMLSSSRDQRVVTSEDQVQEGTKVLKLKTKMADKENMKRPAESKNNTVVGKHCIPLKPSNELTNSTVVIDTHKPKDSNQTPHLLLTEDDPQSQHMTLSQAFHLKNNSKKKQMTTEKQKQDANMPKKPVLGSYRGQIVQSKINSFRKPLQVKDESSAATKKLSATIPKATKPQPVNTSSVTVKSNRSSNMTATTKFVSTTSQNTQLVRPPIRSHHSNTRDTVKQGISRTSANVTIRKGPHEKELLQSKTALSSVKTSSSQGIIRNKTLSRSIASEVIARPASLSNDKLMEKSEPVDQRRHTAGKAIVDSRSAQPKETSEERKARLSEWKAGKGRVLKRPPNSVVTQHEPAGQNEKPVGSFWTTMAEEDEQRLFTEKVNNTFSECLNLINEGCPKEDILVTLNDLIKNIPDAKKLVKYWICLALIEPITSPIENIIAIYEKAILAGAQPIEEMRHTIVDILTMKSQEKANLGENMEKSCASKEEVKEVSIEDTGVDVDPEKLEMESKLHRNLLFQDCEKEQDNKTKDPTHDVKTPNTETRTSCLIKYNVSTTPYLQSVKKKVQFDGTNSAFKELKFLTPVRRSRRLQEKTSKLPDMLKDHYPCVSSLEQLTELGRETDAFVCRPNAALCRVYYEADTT
UniProt Q5EBM0: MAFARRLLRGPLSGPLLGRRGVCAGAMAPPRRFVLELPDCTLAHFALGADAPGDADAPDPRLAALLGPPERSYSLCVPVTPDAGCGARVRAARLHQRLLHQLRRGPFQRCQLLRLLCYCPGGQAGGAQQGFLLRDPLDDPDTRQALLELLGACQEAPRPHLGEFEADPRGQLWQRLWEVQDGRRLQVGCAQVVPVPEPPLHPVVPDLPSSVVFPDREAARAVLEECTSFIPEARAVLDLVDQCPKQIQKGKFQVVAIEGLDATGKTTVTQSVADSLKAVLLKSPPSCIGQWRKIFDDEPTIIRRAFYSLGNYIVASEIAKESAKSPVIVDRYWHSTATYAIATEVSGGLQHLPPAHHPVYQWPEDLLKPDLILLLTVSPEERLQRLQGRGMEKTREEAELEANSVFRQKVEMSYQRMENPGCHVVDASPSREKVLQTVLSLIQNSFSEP
UniProt Q9Y259: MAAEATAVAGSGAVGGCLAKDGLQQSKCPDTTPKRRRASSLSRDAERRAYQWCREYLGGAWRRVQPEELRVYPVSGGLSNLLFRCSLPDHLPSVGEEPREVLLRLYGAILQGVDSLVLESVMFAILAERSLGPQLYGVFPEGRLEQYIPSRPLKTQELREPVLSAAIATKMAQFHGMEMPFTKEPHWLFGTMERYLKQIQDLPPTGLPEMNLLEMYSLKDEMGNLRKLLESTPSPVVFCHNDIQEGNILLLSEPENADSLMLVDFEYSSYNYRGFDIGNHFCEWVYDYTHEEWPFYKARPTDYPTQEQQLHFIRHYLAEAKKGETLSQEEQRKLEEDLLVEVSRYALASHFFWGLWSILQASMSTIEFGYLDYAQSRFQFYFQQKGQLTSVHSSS
UniProt P51790: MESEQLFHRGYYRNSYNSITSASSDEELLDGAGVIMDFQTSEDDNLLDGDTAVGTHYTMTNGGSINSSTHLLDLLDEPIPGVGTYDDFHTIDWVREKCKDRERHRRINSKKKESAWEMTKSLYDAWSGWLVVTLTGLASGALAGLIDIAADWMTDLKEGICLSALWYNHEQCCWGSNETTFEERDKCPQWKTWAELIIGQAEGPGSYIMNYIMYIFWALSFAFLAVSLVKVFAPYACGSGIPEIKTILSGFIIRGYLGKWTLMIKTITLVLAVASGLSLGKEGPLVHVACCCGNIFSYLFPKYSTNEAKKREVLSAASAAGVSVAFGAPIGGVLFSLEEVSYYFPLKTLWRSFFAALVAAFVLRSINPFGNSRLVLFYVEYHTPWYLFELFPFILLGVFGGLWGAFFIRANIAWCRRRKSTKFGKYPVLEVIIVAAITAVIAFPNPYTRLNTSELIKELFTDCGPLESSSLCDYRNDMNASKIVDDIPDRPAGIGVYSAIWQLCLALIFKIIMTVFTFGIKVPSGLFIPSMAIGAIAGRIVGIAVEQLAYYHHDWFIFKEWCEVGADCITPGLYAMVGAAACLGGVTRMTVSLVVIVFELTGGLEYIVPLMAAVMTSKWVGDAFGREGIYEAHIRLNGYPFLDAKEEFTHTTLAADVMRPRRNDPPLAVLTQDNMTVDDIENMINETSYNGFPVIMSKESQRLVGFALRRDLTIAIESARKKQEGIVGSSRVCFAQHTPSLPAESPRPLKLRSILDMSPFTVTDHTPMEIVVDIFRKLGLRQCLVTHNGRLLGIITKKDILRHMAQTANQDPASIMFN
UniProt Q8WUX9: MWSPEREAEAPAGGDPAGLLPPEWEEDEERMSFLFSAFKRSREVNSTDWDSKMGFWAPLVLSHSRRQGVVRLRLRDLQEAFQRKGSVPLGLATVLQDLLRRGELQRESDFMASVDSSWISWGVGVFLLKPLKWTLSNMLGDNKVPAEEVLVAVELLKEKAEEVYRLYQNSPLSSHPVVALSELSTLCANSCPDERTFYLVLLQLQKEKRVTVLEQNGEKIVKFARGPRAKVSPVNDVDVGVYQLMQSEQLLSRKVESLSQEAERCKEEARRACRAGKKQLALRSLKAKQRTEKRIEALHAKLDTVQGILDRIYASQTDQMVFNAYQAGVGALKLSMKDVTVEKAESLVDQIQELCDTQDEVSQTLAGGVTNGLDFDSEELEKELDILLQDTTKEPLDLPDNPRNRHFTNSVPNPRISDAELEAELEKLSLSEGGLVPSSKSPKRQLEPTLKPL
UniProt P35790, whole entry, looked up: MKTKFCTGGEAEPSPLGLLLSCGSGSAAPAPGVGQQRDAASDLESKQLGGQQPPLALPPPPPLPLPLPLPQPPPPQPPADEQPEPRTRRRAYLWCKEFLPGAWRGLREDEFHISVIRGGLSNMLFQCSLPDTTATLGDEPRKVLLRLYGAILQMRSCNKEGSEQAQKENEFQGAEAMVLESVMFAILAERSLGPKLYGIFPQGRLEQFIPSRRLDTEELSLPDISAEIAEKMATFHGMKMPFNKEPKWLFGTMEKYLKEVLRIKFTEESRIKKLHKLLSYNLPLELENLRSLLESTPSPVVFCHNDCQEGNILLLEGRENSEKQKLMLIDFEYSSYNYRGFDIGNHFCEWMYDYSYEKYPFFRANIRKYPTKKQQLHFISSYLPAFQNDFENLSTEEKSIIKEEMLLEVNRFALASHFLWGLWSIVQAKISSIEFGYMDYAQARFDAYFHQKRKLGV
UniProt Q9Y696: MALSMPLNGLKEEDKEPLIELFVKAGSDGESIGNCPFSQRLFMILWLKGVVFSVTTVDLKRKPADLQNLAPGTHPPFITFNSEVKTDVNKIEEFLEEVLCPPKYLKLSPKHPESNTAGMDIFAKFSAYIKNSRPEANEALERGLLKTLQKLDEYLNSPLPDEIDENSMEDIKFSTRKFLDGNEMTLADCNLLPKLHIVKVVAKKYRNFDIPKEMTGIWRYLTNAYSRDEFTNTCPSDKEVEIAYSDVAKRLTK
UniProt Q8WUH1: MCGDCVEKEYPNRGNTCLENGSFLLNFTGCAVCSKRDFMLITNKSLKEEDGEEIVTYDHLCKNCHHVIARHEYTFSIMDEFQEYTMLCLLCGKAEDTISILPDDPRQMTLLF

What all share (assay): log2 fold change, soluble protein after heating vs DMSO (PISA); higher = thermal stabilisation; K562 lysate, 10 uM; active = over 0.2 and 3.5 SD of the protein, either way, in both replicates (recomputed)
Compound in assay [1]: NCC(=O)Nc1ccc(-n2nc(C(F)(F)F)cc2-c2ccc3c(ccc4ccccc43)c2)cc1
The method in brief: (§1)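 The values are log-two fold changes in thermal stability compared with solvent controls and come from duplicates. They were obtained by TMTpro 16plex LC-MS/MS, with channel sums equalised, on the supernatant after 21,000xg for 90 min. That supernatant came from crude K562 extract at 1 mg/mL protein treated with 10 μM compound for 30 min, heated for 3 min across 48°C-58°C, pooled and brought to 0.5% NP-40 at 4°C.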

Compound in a further assay: O=C(CCCCCCC(=O)Nc1ccccc1)NO [vorinostat]
The method in brief:
as §1

Compound in another assay: O=C(O)c1ccc2c(c1)nc(Nc1cccc(Cl)c1)c1ccncc12 [silmitasertib]
The method in brief:
as §1

Compound in assay [2]: O=C1NC(=O)C(c2cnc3ccccn23)=C1c1cn2c3c(cc(F)cc13)CN(C(=O)N1CCCCC1)CC2
An outline of the steps: as §1

Compound in another assay: c1cn2cc(-c3ccc4cn[nH]c4c3)nc(Nc3ccc(N4CCOCC4)cc3)c2n1 [entospletinib]
The method in brief: as §1

As to CKAP2L (UniProt Q8IYA6), the log2 fold change in assay [1] was inactive: 0.108; with vorinostat, inactive: -0.029; in the assay with silmitasertib it was inactive: 0.089; in assay [2] it was inactive: 0.003; with entospletinib, inactive: -0.254.
As for CHM (UniProt P24386), the log2 fold change in assay [1] was inactive: 0.127; with vorinostat, inactive: -0.007; with silmitasertib it was inactive: 0.059; in assay [2], inactive: 0; in the assay with entospletinib, inactive: -0.003.
For CKM (UniProt P06732) the same measures were inactive: 0.003, inactive: -0.053, inactive: -0.025, inactive: -0.014 and inactive: -0.026.
For CHORDC1 (UniProt Q9UHD1) the same measures were inactive: 0.001, inactive: -0.014, inactive: -0.019, inactive: -0.009 and inactive: 0.
For CHD1 (UniProt O14646) the same measures were inactive: -0.053, inactive: -0.045, inactive: 0, inactive: -0.092 and inactive: -0.014.
In the case of CHMP4C (UniProt Q96CF2), the log2 fold change in assay [1] was inactive: -0.007; in the assay with vorinostat it was inactive: 0.126; with silmitasertib, inactive: -0.065; in assay [2], inactive: 0.018; with entospletinib, inactive: 0.003.
For CKAP2 (UniProt Q8WWK9) the same measures were active: 0.434, inactive: 0.011, inactive: -0.013, inactive: -0.044 and inactive: 0.033.
For CHEK2 (UniProt O96017) the same measures were inactive: -0.021, inactive: -0.128, inactive: 0.04, inactive: -0.006 and inactive: -0.033.
For CMPK2 (UniProt Q5EBM0) the same measures were inactive: -0.002, active: -0.323, inactive: 0.005, inactive: 0.064 and inactive: 0.
CHKB (UniProt Q9Y259): the log2 fold change in assay [1] is inactive: -0.004; with vorinostat, inactive: 0.072; with silmitasertib, inactive: 0.014; in assay [2], inactive: -0.034; with entospletinib, inactive: -0.014.
For CNBP isoform 4 (UniProt P62633) the same measures were inactive: -0.027, inactive: -0.191, inactive: 0.099, inactive: 0.067 and inactive: -0.096.
As for CLPP (UniProt Q16740), the log2 fold change in assay [1] was inactive: -0.078; in the assay with vorinostat, inactive: 0.155; in the assay with silmitasertib it was inactive: 0.009; in assay [2], inactive: -0.034; with entospletinib, inactive: -0.028.
For CHML (UniProt P26374) the same measures were inactive: 0.029, active: -0.286, inactive: 0.003, inactive: -0.022 and inactive: 0.006.
For CKMT2 (UniProt P17540) the same measures were inactive: 0.044, inactive: -0.038, inactive: -0.023, inactive: 0.115 and inactive: 0.013.
For CHCHD1 (UniProt Q96BP2) the same measures were inactive: 0.131, inactive: 0.055, inactive: -0.039, inactive: -0.014 and inactive: -0.081.
As for CLCN3 isoform 2 (UniProt P51790), the log2 fold change in assay [1] is inactive: -0.059; with vorinostat it was active: -0.286; with silmitasertib, inactive: 0.033; in assay [2], inactive: -0.024; in the assay with entospletinib it was inactive: 0.046.
With CLASP1 (UniProt Q7Z460), the log2 fold change was inactive: 0.018 in assay [1]; active: -0.317 with vorinostat; inactive: -0.015 with silmitasertib; inactive: -0.022 in assay [2]; inactive: 0.029 with entospletinib.
For CHMP7 (UniProt Q8WUX9) the same measures were inactive: -0.013, inactive: -0.063, inactive: 0.022, inactive: -0.003 and inactive: 0.007.
For CHKA (UniProt P35790) the same measures were inactive: 0.021, inactive: 0.025, inactive: -0.009, inactive: -0.04 and inactive: -0.004.
For CHMP5 (UniProt Q9NZZ3) the same measures were inactive: -0.008, inactive: 0.113, inactive: -0.003, inactive: -0.006 and inactive: 0.013.
With CLIC4 (UniProt Q9Y696), the log2 fold change is inactive: 0.024 in assay [1]; inactive: -0.009 with vorinostat; inactive: -0.002 in the assay with silmitasertib; inactive: 0.032 in assay [2]; inactive: 0.002 with entospletinib.
For the target CLASP2 isoform 3 (UniProt O75122), the log2 fold change in assay [1] was inactive: 0.035; with vorinostat, active: -0.329; in the assay with silmitasertib, inactive: -0.033; in assay [2], inactive: -0.02; with entospletinib, inactive: 0.005.
For CIRBP (UniProt Q14011) the same measures were inactive: 0, inactive: 0.2, inactive: -0.05, inactive: -0.009 and inactive: 0.002.
For CHURC1 isoform 2 (UniProt Q8WUH1) the same measures were inactive: -0.048, active: 0.285, inactive: -0.039, inactive: -0.043 and inactive: -0.128.

These data come from the supplement of paper PMC10849652.
